# Measured data: PubChem BioAssay AID504764 (Drosophila RNAi Screening Center, 2011)
# Screen: 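Genes whose knock-down alters Notch-dependent transcription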 (primary screen)
# Cells: Drosophila Kc167 cells
# Reagent: long dsRNA against Drosophila genes
# Time to read-out: about 5 days (4 days dsRNA, then 24 h after transfection)
# Challenge: transfection of constitutively active membrane-tethered Notch lacking the extracellular domain, read 24 h later
# Read-out: 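Firefly luciferase from an E(spl)m3 reporter with active Notch, plus control-promoter and uninduced reporter wells for normalisation; unnormalised counts, duplicate wells a and b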
# Direction: induced reporter light, run 1, well a and induced reporter light, run 1, well b: higher = more light from the Notch target reporter with active Notch; control promoter light, run 1, well a and control promoter light, run 1, well b: higher = more light from the viral control promoter (cell number, transfection, viability); uninduced reporter light, run 1, well a: higher = more light from the Notch target reporter without active Notch
# Active means: 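Hit if the duplicate-averaged log2 ratio of induced to control-promoter light gives a plate-wise z beyond ±2, or induced to uninduced beyond ±1.8; weak-control or discordant-duplicate wells dropped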
# Meaning of the calls: active = modifier hit (raised or lowered Notch signal); inactive = not a hit
# The deposit covers about 22,000 reagents; this is an unselected part of those with a known target gene and a result. Of all reagents, 403 (1.9%) are marked active. 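Unnormalised raw counts per well; ratio z-scores behind the hit calls and whether each hit raises or lowers signal are not deposited.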 Reagents against one gene are numbered here. Names joined by + are all predicted targets of the reagent. Not given: the amount of reagent.
gene,reagent,"induced reporter light, run 1, well a","induced reporter light, run 1, well b","control promoter light, run 1, well a","control promoter light, run 1, well b","uninduced reporter light, run 1, well a",Call
CG17047 (GeneID 36478),1,79385,96860,96830,1.14e5,7630,inactive
Mst27D (GeneID 319019),1,1.48e5,1.21e5,2.18e5,2.10e5,10270,inactive
futsch (GeneID 5740544),1,67670,81195,96035,85720,5640,inactive
futsch (GeneID 5740544),2,1.10e5,1.09e5,1.77e5,2.38e5,8632,inactive
futsch (GeneID 5740544),3,1.38e5,1.62e5,1.94e5,2.26e5,9850,inactive
futsch (GeneID 5740544),4,1.22e5,1.43e5,2.66e5,1.98e5,9720,inactive
gbb (GeneID 37778),1,1.65e5,1.29e5,1.81e5,1.78e5,10975,active
Wnt4 (GeneID 34007),1,24870,28255,23840,23340,4985,inactive
Wnt4 (GeneID 34007),2,1.13e5,1.02e5,1.26e5,1.26e5,6620,inactive
cv-d (GeneID 41921),1,2.60e5,2.36e5,4.16e5,4.74e5,15238,active
cv-d (GeneID 41921),2,1.85e5,1.86e5,1.81e5,1.71e5,12880,inactive
cv-d (GeneID 41921),3,1.79e5,2.12e5,1.84e5,1.58e5,14460,inactive
CG31268 (GeneID 318652),1,1.20e5,1.30e5,1.78e5,1.85e5,9100,inactive
Arl6 (GeneID 37236),1,1.06e5,96065,92550,87580,7515,inactive
Klp3A (GeneID 31240),1,1.65e5,1.91e5,2.25e5,2.49e5,13800,inactive
CG11583 (GeneID 326206),1,1.20e5,1.20e5,86685,32905,11260,inactive
Lcp65Ac (GeneID 38708),1,1.93e5,1.56e5,2.45e5,2.31e5,8320,inactive
HmgZ (GeneID 37480),1,84080,79275,74310,85790,9010,inactive
HmgZ (GeneID 37480),2,37535,39825,32090,37710,1930,inactive
CG17027 (GeneID 39742),1,1.44e5,1.42e5,59000,83310,8135,inactive

Laid out differently: 6 of the entries above
futsch (GeneID 5740544) #1: induced reporter light, run 1, well a = 67670; induced reporter light, run 1, well b = 81195; control promoter light, run 1, well a = 96035; control promoter light, run 1, well b = 85720; uninduced reporter light, run 1, well a = 5640; Call = inactive
futsch (GeneID 5740544) #2: induced reporter light, run 1, well a = 1.10e5; induced reporter light, run 1, well b = 1.09e5; control promoter light, run 1, well a = 1.77e5; control promoter light, run 1, well b = 2.38e5; uninduced reporter light, run 1, well a = 8632; Call = inactive
futsch (GeneID 5740544) #3: induced reporter light, run 1, well a = 1.38e5; induced reporter light, run 1, well b = 1.62e5; control promoter light, run 1, well a = 1.94e5; control promoter light, run 1, well b = 2.26e5; uninduced reporter light, run 1, well a = 9850; Call = inactive
futsch (GeneID 5740544) #4: induced reporter light, run 1, well a = 1.22e5; induced reporter light, run 1, well b = 1.43e5; control promoter light, run 1, well a = 2.66e5; control promoter light, run 1, well b = 1.98e5; uninduced reporter light, run 1, well a = 9720; Call = inactive
gbb (GeneID 37778): induced reporter light, run 1, well a = 1.65e5; induced reporter light, run 1, well b = 1.29e5; control promoter light, run 1, well a = 1.81e5; control promoter light, run 1, well b = 1.78e5; uninduced reporter light, run 1, well a = 10975; Call = active
Wnt4 (GeneID 34007) #1: induced reporter light, run 1, well a = 24870; induced reporter light, run 1, well b = 28255; control promoter light, run 1, well a = 23840; control promoter light, run 1, well b = 23340; uninduced reporter light, run 1, well a = 4985; Call = inactive

The list goes on.
gene,reagent,"induced reporter light, run 1, well a","induced reporter light, run 1, well b","control promoter light, run 1, well a","control promoter light, run 1, well b","uninduced reporter light, run 1, well a",Call
CG16779 (GeneID 41134),1,95770,79740,1.06e5,69405,4545,inactive
Rpt4R (GeneID 39351),1,1.56e5,1.50e5,1.73e5,1.50e5,6938,inactive
Lcp9 (GeneID 37963),1,1.79e5,1.90e5,1.97e5,1.77e5,10320,inactive
CG10991 (retired record) (GeneID 40730),1,1.11e5,1.19e5,96075,87075,8882,inactive
CG14647 (GeneID 40558),1,1.19e5,85650,68620,78810,7890,inactive
CR40354 (GeneID 10178779),1,3.28e5,3.04e5,5.22e5,3.99e5,19085,inactive
CG8675 (GeneID 32716),1,1.11e5,88425,91035,44210,7810,inactive
CG14292 (GeneID 42264),1,2.31e5,2.08e5,2.58e5,2.58e5,17430,inactive
Lrpprc2 (GeneID 31095),1,2.02e5,1.75e5,2.15e5,2.33e5,14235,inactive
CG12728 (GeneID 31526),1,2.25e5,1.85e5,2.85e5,2.31e5,16692,inactive
CG8157 (GeneID 36700),1,1.24e5,1.33e5,1.78e5,1.57e5,9640,inactive
CG8157 (GeneID 36700),2,,,,,,inactive
Ibf1 (GeneID 41103),1,65730,54020,45620,49330,2660,inactive
Est-6 (GeneID 39392),1,1.62e5,1.44e5,2.36e5,2.44e5,8370,inactive
Men-b (GeneID 43936),1,1.39e5,1.28e5,1.66e5,1.56e5,11650,inactive
TkR99D (GeneID 43551),1,1.41e5,1.16e5,1.75e5,1.53e5,10985,inactive
CG34024 (retired record) (GeneID 3885580),1,2.27e5,1.99e5,1.87e5,1.43e5,16240,inactive
dpr3 (GeneID 3346208),1,95040,79680,79615,51185,6055,inactive
dpr3 (GeneID 3346208),2,87485,98435,78325,36455,8500,inactive
dpr3 (GeneID 3346208),3,,,,,,inactive
CG4409 (GeneID 36840),1,1.00e5,1.06e5,1.30e5,1.90e5,13485,inactive
sff (GeneID 39732),1,1.23e5,1.51e5,80305,96255,11685,inactive
Ilp2 (GeneID 39150),1,1.21e5,1.35e5,94830,66260,12920,inactive
CG16739 (GeneID 37307),1,35990,36880,38330,52145,4220,inactive
Mur11Da (GeneID 318139),1,68765,69140,81385,56000,4165,inactive
Acbp1 (GeneID 34111),1,1.61e5,1.90e5,1.10e5,1.40e5,24665,inactive
CG13544 (GeneID 37673),1,2.25e5,1.95e5,1.57e5,1.27e5,13160,active
Gyc76C + CG42637,1,1.17e5,1.15e5,84705,1.10e5,9132,inactive
Hmg-2 (GeneID 37407),1,78725,81110,71375,74880,7220,inactive
RanBPM (GeneID 36102),1,85115,86110,37225,40280,7870,inactive
